# Hit rate of the full screen: of about 300,000 compounds, about 5,400 (1.8%) were called active. Inconclusive means that the source gave no clear call. Such entries were picked first, then a sample of the others. The call rests on the fitted dose curve; tested in HEK293 cells. A potency beside an inconclusive call is a rough fit, not a confirmed value.
# Test: qHTS for inhibitors of binding or entry into cells for Marburg Virus
# Settings: Marburg virus pseudotyped entry inhibition, cell reporter; series mostly up to 37.8 µM
# Potency means the concentration at half of the fitted maximal effect.
row,SMILES,Potency
1,CCOC(=O)C1=C(C(=O)OCC)c2ccc(OC)c(OC)c2C1,"inconclusive: 2 µM [inhibitor, full curve]"
2,c1ccc(-n2cnc3cc(NCc4cccs4)ccc32)cc1,"inconclusive: 16.4 µM [inhibitor, single point]"
3,COc1cc2nc(N(CCCN(C)C)C(=O)c3ccc(C(=O)c4ccccc4)cc3)sc2cc1OC,"inconclusive: 11.2 µM [inhibitor, partial curve, poor fit]"
4,CCCN(CC(=O)Nc1ccccc1C)C(=O)C1CC(=O)N(Cc2ccccc2)C1 (configuration not stated),inactive
5,Cc1cccc(NC(=O)c2ccc3ccccc3n2)c1C,"inconclusive: 12.6 µM [inhibitor, single point]"
6,CCCN(CCC)C1=CC(=[N+]2CCCC2)CC(C)(C)C1,"inconclusive: 10 µM [inhibitor, partial curve]"
7,Cc1ccc2c(CC(=O)N3CCN(c4cccc(Cl)c4)CC3)coc2c1,"inconclusive: 5.62 µM [inhibitor, partial curve, poor fit]"
8,CCOc1ccccc1/C=C/c1nc2ccccc2[nH]c1=O,"inconclusive: 10 µM [inhibitor, partial curve, poor fit]"
9,COc1cc([N+](=O)[O-])ccc1NC(=O)NCC1CCN(Cc2ccc(Cl)cc2)CC1,"inconclusive: 35.5 µM [inhibitor, single point]"
10,O=C(Nc1cccc(C(F)(F)F)c1)C1CCCN(S(=O)(=O)c2cccc3nsnc23)C1 (configuration not stated),inactive
11,O/N=C/C1=C(Cl)c2ccccc2CC1,inactive
12,O=[N+]([O-])c1ccccc1CCc1ccccc1[N+](=O)[O-],"inconclusive: 3.16 µM [activator, partial curve, poor fit]"
13,CC(C)=C1C2CCC1C(C(=O)Nc1sc(C)c(-c3ccc(C(C)C)cc3)c1C(N)=O)C2C(=O)O (configuration not stated),active: 20.6 µM
14,O=C(COC(=O)CCc1c[nH]c2ccccc12)NCc1ccc(Cl)cc1,"inconclusive: 0.891 µM [inhibitor, single point]"
15,Clc1ccc(-c2cn3cccnc3n2)cc1,inactive
16,Nc1nnnn1CC(=O)N/N=C/c1cc([N+](=O)[O-])ccc1O,"inconclusive: 1.12 µM [activator, full curve, poor fit]"
17,O=C(NCCNC(=O)C(c1ccccc1)c1ccccc1)c1ccco1,inactive
18,O=C(CSc1nc(-c2ccco2)cc(C(F)(F)F)n1)NN1CCOCC1,inactive
19,c1ccc(-c2cc(-c3ccccc3)c3c(n2)-c2ccccc2OC3)cc1,inactive
20,COc1ccc(CC(=O)NNC(=O)COc2ccc3ccccc3c2)cc1,"inconclusive: 5.62 µM [inhibitor, single point]"
21,O=C(c1ccccc1)c1ccc(N2CCOCC2)c(F)c1,inactive
22,COc1ccc(-n2nc(C(=O)Nc3ccc(OC)c(OC)c3)c3c4ccccc4n(C)c3c2=O)cc1,inactive
23,Cc1scc(C(=O)NNC(=O)CCC(=O)O)c1C,"inconclusive: 22.4 µM [activator, single point]"
24,COC(=O)c1[nH]c2cc(OC)ccc2c1N,inactive

row,SMILES,Potency
1,CCc1ccc(C(=O)Nc2nc3ccccc3[nH]2)cc1,"inconclusive: 2 µM [inhibitor, full curve, poor fit]"
2,NC(=O)CSc1nc2ccc(NC(=O)COc3ccccc3)cc2s1,inactive
3,Cc1ccc(CCNC(=O)c2cc3c(s2)-c2ccccc2OC3)cc1,inactive
4,CCN(CC)CC(O)COc1ccccc1C(=O)CCc1ccccc1 (configuration not stated),"inconclusive: 29.1 µM [inhibitor, single point]"
5,CCCCCn1c(N)c(-c2nc3ccccc3s2)c2c([N+](=O)[O-])nn(C)c(=O)c21,"inconclusive: 0.517 µM [inhibitor, partial curve, poor fit]"
6,CNC(=S)Nc1cccc([N+](=O)[O-])c1,inactive
7,CCOC(=O)CSc1cc(C)c(C#N)c2nc3ccccc3n12,"inconclusive: 2.24 µM [activator, partial curve, poor fit]"
8,COc1ccc(C(O)c2nc3ccccc3n2C)cc1OC (configuration not stated),"inconclusive: 0.146 µM [inhibitor, full curve, poor fit]"
9,COc1ccccc1C(=O)ON=C1c2ccccc2-c2ccccc21,"inconclusive: 12.6 µM [activator, single point]"
10,CC1CCN(CCCNC(=O)c2ccc(CSCc3cccc(Cl)c3)o2)CC1,active: 11.6 µM
11,Cc1cc(C)c2nc3nc(C)cc(C)c3c(N)c2c1,"inconclusive: 35.5 µM [inhibitor, single point]"
12,CCOn1c(=O)c(-c2cc3ccccc3o2)[n+]([O-])c2ccccc21,"inconclusive: 0.0891 µM [activator, full curve, poor fit]"
13,CC(C)(C)N(C(=O)Cn1nnc(-c2ccc(F)cc2)n1)C(C(=O)NC1CCCC1)c1ccncc1 (configuration not stated),"inconclusive: 35.5 µM [inhibitor, single point]"
14,CN(C)c1ccc(/C=c2\sc3nc(-c4ccccc4)nn3c2=O)cc1,inactive
15,CCC(C(=O)NC1CCCC1)N(C(=O)c1snc(C(N)=O)c1N)c1ccc(C)cc1C (configuration not stated),"inconclusive: 25.1 µM [inhibitor, partial curve, poor fit]"
16,CN(CC(=O)N1CCCC1)S(=O)(=O)c1cccc(Cl)c1,inactive
17,CCCN(CCC)CC(O)CN(c1cc([N+](=O)[O-])ccc1OC)S(=O)(=O)c1ccccc1 (configuration not stated),"inconclusive: 35.5 µM [inhibitor, single point]"
18,COc1nnc(OC)c2ccccc12,inactive
19,O=C(CSCc1c(Cl)cccc1Cl)Nc1ccccc1-c1ccccc1,"inconclusive: 14.1 µM [inhibitor, single point]"
20,Cc1ccc(S(=O)(=O)Nc2cc(C(F)(F)F)ccc2N2CCOCC2)c(C)c1,"inconclusive: 13 µM [inhibitor, partial curve, poor fit]"
21,CC1CCCC(C)N1CC(O)COCc1ccccc1 (configuration not stated),active: 6.31 µM
22,COC(=O)/C=C1/N/C(=N\c2nc(C)cc(C)n2)N(c2ccccc2)C1=O,"inconclusive: 0.355 µM [inhibitor, partial curve, poor fit]"
23,COCC(C)OC(=O)/C(C#N)=C\c1coc2ccc(C)cc2c1=O (configuration not stated),inactive
24,Cc1onc(-c2c(Cl)cccc2Cl)c1C(=O)N(C)Cc1ccccc1,"inconclusive: 10 µM [inhibitor, partial curve, poor fit]"

row,SMILES,Potency
1,O=S(=O)(c1ccc(F)cc1)N1CCN(c2ccccc2)CC1,inactive
2,COc1ccccc1NC(=O)c1nc(S(=O)(=O)Cc2ccccc2)ncc1Cl,"inconclusive: 15.8 µM [inhibitor, single point]"
3,COc1ccccc1-n1c(N)c(C(=O)NC[C@H]2CCCO2)c2nc3ccccc3nc21,inactive
4,O=C(O)c1cc(NC(=O)c2ccccc2F)cc(NC(=O)c2ccccc2F)c1,inactive
5,COc1ccc(OC)c(Cc2cnc3nc(N)nc(N)c3c2C)c1,active: 0.112 µM
6,CCN(CC)S(=O)(=O)c1ccc(NN=C(C#N)C#N)cc1,"inconclusive: 29.1 µM [inhibitor, single point]"
7,CNC(=O)c1[nH]nc2c1CCc1cc(OC)ccc1-2,"inconclusive: 12.6 µM [inhibitor, single point]"
8,CC1CCN(CC(=O)N2CCCc3c2c(=O)oc2ccc(OCc4ccccc4)cc32)CC1,active: 7.08 µM
9,CCCOc1ccc(Br)cc1CSC(=N)N,active: 7.3 µM
10,CCOC(=O)c1cn(Cc2ccc(Cl)cc2Cl)c2cc(C)nn2c1=O,"inconclusive: 3.16 µM [inhibitor, single point]"
11,COc1ccc(C(C)NC(=O)c2ccccc2Cl)cc1OC (configuration not stated),"inconclusive: 35.5 µM [activator, single point]"
12,O=C(O)c1c(NC(=O)N2CCOCC2)sc2c1CCCC2,"inconclusive: 12.6 µM [activator, single point]"
13,CCc1nc2ccccc2nc1N1CCN(S(=O)(=O)c2ccccc2)CC1,"inconclusive: 7.94 µM [inhibitor, partial curve, poor fit]"
14,O=C1Nc2ccc(Br)cc2C1Cc1ccccc1F (configuration not stated),"inconclusive: 10 µM [inhibitor, partial curve, poor fit]"
15,CN1CCN(S(=O)(=O)c2ccc(NC(=S)NC(=O)c3ccccc3)cc2)CC1,"inconclusive: 0.112 µM [activator, full curve, poor fit]"
16,CSc1nc2ccccc2nc1N(C)S(=O)(=O)c1ccc(C)cc1,inactive
17,CCc1nc(CNC(=O)c2cc(OC)c(OC)c(OC)c2)no1,"inconclusive: 0.562 µM [activator, partial curve, poor fit]"
18,CC(C)=C1C(=O)NN(c2ccc(F)c(Cl)c2)C1=O,inactive
19,CCn1cc([N+](=O)[O-])c(C(=O)Nc2ccc(Cn3nc(C)cc3C)cc2)n1,"inconclusive: 3.26 µM [inhibitor, single point]"
20,COC(=O)c1ccccc1NC(=O)CSCC(=O)Nc1ccccc1,"inconclusive: 10.3 µM [inhibitor, partial curve]"
21,CCOc1ccc(NC(=O)N2CC=C(n3c(=O)[nH]c4ccccc43)CC2)cc1,"inconclusive: 15.8 µM [inhibitor, single point]"
22,O=C(c1cc(F)ccc1F)C1CCCN(Cc2ccc3nonc3c2)C1 (configuration not stated),"inconclusive: 11.2 µM [inhibitor, partial curve, poor fit]"
23,O=C(/C=C/c1ccccc1)OCCCN=C1NS(=O)(=O)c2ccccc21,"inconclusive: 7.08 µM [inhibitor, partial curve, poor fit]"
24,CNc1nc(Oc2ccccc2C(=O)OC)nc(SC)n1,"inconclusive: 1.64 µM [inhibitor, partial curve]"

# Grouped by structure, those above with a Cl atom (13)
row,SMILES,Potency
7,Cc1ccc2c(CC(=O)N3CCN(c4cccc(Cl)c4)CC3)coc2c1,"inconclusive: 5.62 µM [inhibitor, partial curve, poor fit]"
9,COc1cc([N+](=O)[O-])ccc1NC(=O)NCC1CCN(Cc2ccc(Cl)cc2)CC1,"inconclusive: 35.5 µM [inhibitor, single point]"
11,O/N=C/C1=C(Cl)c2ccccc2CC1,inactive
14,O=C(COC(=O)CCc1c[nH]c2ccccc12)NCc1ccc(Cl)cc1,"inconclusive: 0.891 µM [inhibitor, single point]"
15,Clc1ccc(-c2cn3cccnc3n2)cc1,inactive
10,CC1CCN(CCCNC(=O)c2ccc(CSCc3cccc(Cl)c3)o2)CC1,active: 11.6 µM
16,CN(CC(=O)N1CCCC1)S(=O)(=O)c1cccc(Cl)c1,inactive
19,O=C(CSCc1c(Cl)cccc1Cl)Nc1ccccc1-c1ccccc1,"inconclusive: 14.1 µM [inhibitor, single point]"
24,Cc1onc(-c2c(Cl)cccc2Cl)c1C(=O)N(C)Cc1ccccc1,"inconclusive: 10 µM [inhibitor, partial curve, poor fit]"
2,COc1ccccc1NC(=O)c1nc(S(=O)(=O)Cc2ccccc2)ncc1Cl,"inconclusive: 15.8 µM [inhibitor, single point]"
10,CCOC(=O)c1cn(Cc2ccc(Cl)cc2Cl)c2cc(C)nn2c1=O,"inconclusive: 3.16 µM [inhibitor, single point]"
11,COc1ccc(C(C)NC(=O)c2ccccc2Cl)cc1OC (configuration not stated),"inconclusive: 35.5 µM [activator, single point]"
18,CC(C)=C1C(=O)NN(c2ccc(F)c(Cl)c2)C1=O,inactive

# 2 successive records from above, for reference:
row,SMILES,Potency
5,COc1ccc(OC)c(Cc2cnc3nc(N)nc(N)c3c2C)c1,active: 0.112 µM
6,CCN(CC)S(=O)(=O)c1ccc(NN=C(C#N)C#N)cc1,"inconclusive: 29.1 µM [inhibitor, single point]"

# From PubChem BioAssay AID540276 (National Center for Advancing Translational Sciences (NCATS), 2011)
